Drawing on the supplement of paper PMC6411743, this text covers NP40-soluble protein abundance for one compound.

In this test the target is T1, B8ZZ50 and related entries (UniProt O60573).
T1 sequence (whole entry): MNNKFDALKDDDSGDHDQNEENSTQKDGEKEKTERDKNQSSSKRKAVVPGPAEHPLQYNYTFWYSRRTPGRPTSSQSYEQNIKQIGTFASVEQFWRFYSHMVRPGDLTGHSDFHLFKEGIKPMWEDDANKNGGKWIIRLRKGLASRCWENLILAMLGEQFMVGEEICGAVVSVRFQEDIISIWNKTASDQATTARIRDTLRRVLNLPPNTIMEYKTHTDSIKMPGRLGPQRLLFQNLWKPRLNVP
The test is described as follows: NP40-soluble protein abundance relative to vehicle (solubility fold change) (ratio); higher = more soluble protein in presence of GTP. The protocol:
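Solubility proteome profiling in Jurkat crude lysate. Lysate was treated with Mg-GTP (0.1-10 mM) for 10 min at room temperature and 3 min at 37 °C, then solubilised with 0.8% NP40 and benzonase, followed by ultracentrifugation. Proteins were quantified by TMT10 LC-MS/MS; the value is the NP40-soluble abundance relative to the NP40-processed vehicle, from 3 independent experiments.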

± gives the standard deviation of the averaged measurements. This is one part of the list.

Take `Nc1nc2c(ncn2[C@@H]2O[C@H](COP(=O)(O)OP(=O)(O)OP(=O)(O)O)[C@@H](O)[C@H]2O)c(=O)[nH]1` [guanosine triphosphate]: the NP40-soluble protein abundance reads like this: (concentration: 0.1mM) 1.02 ± 0.075; (concentration: 0.5mM) 1.05 ± 0.018; (concentration: 1mM) 1.04 ± 0.12; (concentration: 2mM) 1.12 ± 0.096; (concentration: 4mM) 1.15 ± 0.072; (concentration: 6mM) 1.2 ± 0.15. The NP40-soluble protein abundance (concentration: 8mM) was determined as 1.13 ± 0.08 and the NP40-soluble protein abundance (concentration: 10mM) stood at 1.21 ± 0.14.
